Reference: PubChem BioAssay AID248 (DTP/NCI, 2004)
The list does not hold the whole screen: it is rich in T/C values a quarter to a half above the control, in often repeated tests (any T/C) and in doses without a T/C. Further doses and runs are listed elsewhere. T/C is the treated group as % of the vehicle group. Some entries give survivors of the animals treated and no T/C: the source holds a T/C of zero for them, seemingly a mark for toxic or unscored doses. Some survivor counts are full or nearly so, which does not show that the dose was tolerated: the source hardly ever lists a survival T/C far under the control, and the zero likely stands for such cases as well. Counts of survivors are from the toxicity check (mostly the fifth day) where no day follows; animals may have died later. Schedules are NCI's codes, taken here to give the interval after Q, in days (D) or hours (H), and the number of doses after X. For survival time, this PubChem deposit counts one and a half times the control or more as active, and values a quarter to a half above the control carry no call in these data; other NCI protocols may use other cut-offs.

Test system: L1210 leukemia ip in BDF1 mice, survival T/C
Assay: NCI In Vivo Anticancer Drug Screen. Data for tumor model L1210 Leukemia (intraperitoneal) in B6D2F1 (BDF1) mice
Conditions: T/C endpoint: mean survival time, higher T/C = longer survival
[1] = dose: 400.0 mg/kg/injection, schedule: Q01DX001 (ip), vehicle: saline
[2] = dose: 200.0 mg/kg/injection, schedule: Q04DX003 (ip), vehicle: Klucel (hydroxypropylcellulose) (HPC)
[3] = dose: 200.0 mg/kg/injection, schedule: Q04DX003 (ip), vehicle: saline with Tween-80
[4] = dose: 400.0 mg/kg/injection, schedule: Q04DX003 (ip), vehicle: saline with Tween-80
[5] = dose: 300.0 mg/kg/injection, schedule: Q01DX001 (ip), vehicle: acetone
[6] = dose: 200.0 mg/kg/injection, schedule: Q04DX003 (ip), vehicle: saline
[7] = dose: 400.0 mg/kg/injection, schedule: Q04DX003 (ip), vehicle: saline

With `Cc1ccc(S(=O)(=O)NC(=O)N(Cc2ccccc2)C(C)(C)C)cc1` the survivor count (dose: 100.0 mg/kg/injection, schedule: Q01DX009 (ip), vehicle: Klucel (hydroxypropylcellulose) (HPC)) was 3 of 6.

With `CCOC(=O)C1C2CCCCC21` (stereo not drawn) the survivor count [1] was 3 of 6.

With `CS(=O)(=O)OCCN(CCOS(C)(=O)=O)c1ccc(C=Nc2cc(Br)c(O)c(Br)c2)cc1` the survivor count [2] was 3 of 6 and the survivor count (dose: 400.0 mg/kg/injection, schedule: Q04DX003 (ip), vehicle: Klucel (hydroxypropylcellulose) (HPC)) was 5 of 6.

In the case of `CC(CO)(CI)[n+]1ccccc1` (stereo not drawn), the survivor count [3] was 0 of 6 and the survivor count [4] was 0 of 6.

In the case of `CC(=O)C1COC(O)C1C` (stereo not drawn), the survivor count (dose: 5.0 mg/kg/injection, schedule: Q01DX009 (ip), vehicle: saline) was 6 of 6, the survivor count (dose: 20.0 mg/kg/injection, schedule: Q01DX001 (ip), vehicle: saline) was 0 of 6 and the survivor count (dose: 40.0 mg/kg/injection, schedule: Q01DX001 (ip), vehicle: saline) was 3 of 6. For the same molecule, the survivor count (dose: 80.0 mg/kg/injection, schedule: Q01DX001 (ip), vehicle: saline) was 0 of 6.

With `C=C1C(=O)OCC1C(=O)O` (stereo not drawn) the survivor count (dose: 150.0 mg/kg/injection, schedule: Q01DX001 (ip), vehicle: saline) was 1 of 6 and the survivor count (dose: 300.0 mg/kg/injection, schedule: Q01DX001 (ip), vehicle: saline) was 0 of 6.

For `CCOC(=O)c1[nH]c(C)c(CCCC(=O)O)c1C`, the survivor count [5] was 0 of 6.

`CCOC(=O)NCC(C)(CCN1CCCCC1)c1cccc2ccccc12` (stereo not drawn) was tested, and the survivor count (dose: 200.0 mg/kg/injection, schedule: Q01DX009 (ip), vehicle: saline with Tween-80) was 0 of 6 and the survivor count (dose: 400.0 mg/kg/injection, schedule: Q01DX009 (ip), vehicle: saline with Tween-80) was 0 of 6.

For `Cn1nc2ccccc2n1`, the T/C [3] was 133 % of control and the T/C [4] was 125 % of control.

In the case of `CC1NNC(=O)C1(Br)Br` (stereo not drawn), the survivor count (dose: 50.0 mg/kg/injection, schedule: Q01DX009 (ip), vehicle: gum acacia) was 0 of 3, the survivor count (dose: 100.0 mg/kg/injection, schedule: Q01DX009 (ip), vehicle: gum acacia) was 0 of 3 and the survivor count (dose: 200.0 mg/kg/injection, schedule: Q01DX009 (ip), vehicle: gum acacia) was 0 of 3.

With `C[N+]1(CCCNC(=O)Nc2ccc(Cl)cc2)CCOCC1` the survivor count (dose: 100.0 mg/kg/injection, schedule: Q04DX002 (ip), vehicle: saline) was 0 of 3, the survivor count (dose: 200.0 mg/kg/injection, schedule: Q04DX002 (ip), vehicle: saline) was 0 of 3 and the survivor count (dose: 400.0 mg/kg/injection, schedule: Q04DX002 (ip), vehicle: saline) was 1 of 3.

In the case of `Cc1cccc(C(O)C(=O)O)c1` (stereo not drawn), the survivor count [5] was 0 of 6.

For `CC(CC(CCC(=O)O)(c1ccccc1)c1ccccc1)N(C)C` (stereo not drawn), the survivor count (dose: 400.0 mg/kg/injection, schedule: Q01DX001 (ip), vehicle: carboxymethylcellulose (CMC)) was 1 of 4.

In the case of `CN(CCC[N+](C)(C)C)C(=O)C(c1ccccc1)c1ccccc1`, the survivor count [6] was 2 of 6 and the survivor count [7] was 0 of 6.

With `Clc1ccccc1/C=C/C=C1c2ccccc2-c2ccccc21` the survivor count [6] was 4 of 6.

For `Cc1n[nH]c(C)c1C(C)C`, the survivor count [1] was 1 of 4.

`C[N+](C)(C)c1ccc(/C=C2/CCCCC2=O)cc1` was tested, and the survivor count (dose: 100.0 mg/kg/injection, schedule: Q04DX003 (ip), vehicle: saline) was 2 of 6, the survivor count [6] was 0 of 6 and the survivor count [7] was 0 of 6.

In the case of `CCN(CC)CCCC(C)Nc1nccc(/C=C/c2ccc(Cl)cc2)n1` (stereo not drawn), the survivor count [2] was 2 of 6.
